{
  "source": "patent US11795615B2",
  "about": "(priority 2015, dated 2023)",
  "key": {"[1]": {"test": "Side by side bleaching of Kraft pulp, hand sheet Kappa number, pH and ORP"}, "[2]": {"test": "TOX formation test in pulp bleaching", "details": "50° C., 5% pulp consistency, 1.0% NaCl, 2 hour"}},
  "data": [
    {"molecule": "chlorine dioxide [ClO2]", "values": [
      {"measurement": "Final pH", "setting": "[1]; 1.13 g/L PAA equiv., initial pH 8.2, 30 min", "value": 6.4},
      {"measurement": "sodium hydroxide consumed", "setting": "[1]; bleaching with 1.0 g/L chlorine dioxide at pH 8", "value": "about 1.5 g/L"},
      {"measurement": "Normalized TOX", "setting": "[2]", "value": "17.7 mg/L per 1000 mg/L oxidant"},
      {"measurement": "TOX", "setting": "[2]; 4000 mg/L (peracetate, PAA) or 1000 mg/L (ClO2)", "value": 17.7, "unit": "mg/L"}
    ]},
    {"molecule": "CC(=O)OO", "note": "[PAA, peracetic acid]", "values": [
      {"measurement": "Final pH", "setting": "[1]; 4.0 g/L PAA equiv., initial pH 7.0, 30 min", "value": 7.0},
      {"measurement": "Final pH", "setting": "[1]; 4.0 g/L PAA equiv., initial pH 8.0, 30 min", "value": 8.0},
      {"measurement": "Final pH", "setting": "[1]; 4.0 g/L PAA equiv., initial pH 8.9, 30 min", "value": 8.8},
      {"measurement": "sodium hydroxide needed to adjust pH", "setting": "[1]; 4.0 g/L peracetic acid solution up to pH 7.0", "value": 10.9, "unit": "g/L"}
    ]}
  ]
}
